Measured values published in patent publication US10336822B2, “Early marker of proteinuria in patients treated with an anti-VEGF treatment” (Mayo Foundation for Medical Education and Research, priority 2009, dated 2019).
At least one compound was matched to its structure with a doubt left.

Tested on: renal cell carcinoma, clear cell type
Test: Clinical course of a renal cell carcinoma patient on sunitinib therapy
Assay type: in vivo, human
Conditions: person, Grade 2, T2, N0, M1 renal cell carcinoma after nephrectomy
Source text: They subsequently underwent a right radical nephrectomy and retroperitoneal lymphadenectomy.

Q: Which response to therapy does the source give for `CCN(CC)CCNC(=O)c1c(C)[nH]c(/C=C2\C(=O)Nc3ccc(F)cc32)c1C` [Sunitinib] here?
A: good response
